For this assay, the target named is GST-Dom3 IP3R1 (GST fused to IP3R1 Domain 3, aa 923-1581) (mouse) (UniProt P11881). As to the kind of experiment: condition: 30 µg peptide with 30 µg GST-fusion protein; pull-down; 30 µg GST-Dom3 IP3R1 with 30 µg BH4 peptide on glutathione-Sepharose 4B beads, 2 h at 4°C; Interaction Buffer 50 mM Tris-HCl, 300 mM NaCl, 1 mM EDTA, 1% NP-40, 0.5% sodium deoxycholate, 0.5% BSA, pH 7.0; washed 4 times with 150 mM NaCl and no BSA; SDS-PAGE with GelCode blue total protein stain, bands quantified with ImageJ; both purified.

Sequences of proteins named here, by UniProt entry; tags and fusion partners are left off. Residues count along the entry.
UniProt P11881, residues 923-1581: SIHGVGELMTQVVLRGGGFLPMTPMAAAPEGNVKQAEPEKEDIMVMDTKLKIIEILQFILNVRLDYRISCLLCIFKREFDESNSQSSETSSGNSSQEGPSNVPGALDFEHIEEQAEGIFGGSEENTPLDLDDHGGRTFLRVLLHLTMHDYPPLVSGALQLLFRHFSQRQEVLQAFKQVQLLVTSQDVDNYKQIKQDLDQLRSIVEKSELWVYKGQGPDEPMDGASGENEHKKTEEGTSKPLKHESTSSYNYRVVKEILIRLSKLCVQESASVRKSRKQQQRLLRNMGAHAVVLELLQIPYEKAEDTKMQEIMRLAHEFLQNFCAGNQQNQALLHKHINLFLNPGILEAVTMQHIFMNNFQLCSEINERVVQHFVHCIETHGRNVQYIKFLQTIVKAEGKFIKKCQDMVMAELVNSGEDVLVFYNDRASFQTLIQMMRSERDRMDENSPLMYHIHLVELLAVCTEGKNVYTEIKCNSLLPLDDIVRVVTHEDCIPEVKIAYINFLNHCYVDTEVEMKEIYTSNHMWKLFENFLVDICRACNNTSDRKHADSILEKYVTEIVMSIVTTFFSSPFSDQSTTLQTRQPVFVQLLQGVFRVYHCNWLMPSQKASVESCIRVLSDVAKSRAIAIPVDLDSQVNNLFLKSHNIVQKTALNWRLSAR

These are yes or no findings as the source states them, for the method shown.

Regarding RTGYDNREGGMKYIHYKLSQRGYEW [Bcl-2-BH4 IV/GG peptide], the binding result is “no binding”.

Values taken from article PMC3795776, “Alpha-Helical Destabilization of the Bcl-2-BH4-Domain Peptide Abolishes Its Ability to Inhibit the IP3 Receptor” (PLoS ONE, 2013).
